In the supplement of paper PMC11006884:
The entries are a selection whose mix differs from that of the whole data set.

Sequences of proteins named here, by UniProt entry; tags and fusion partners are left off. A change or cut given only in a name is not applied to a line headed by its entry.
UniProt Q9Y5T5, whole entry, looked up: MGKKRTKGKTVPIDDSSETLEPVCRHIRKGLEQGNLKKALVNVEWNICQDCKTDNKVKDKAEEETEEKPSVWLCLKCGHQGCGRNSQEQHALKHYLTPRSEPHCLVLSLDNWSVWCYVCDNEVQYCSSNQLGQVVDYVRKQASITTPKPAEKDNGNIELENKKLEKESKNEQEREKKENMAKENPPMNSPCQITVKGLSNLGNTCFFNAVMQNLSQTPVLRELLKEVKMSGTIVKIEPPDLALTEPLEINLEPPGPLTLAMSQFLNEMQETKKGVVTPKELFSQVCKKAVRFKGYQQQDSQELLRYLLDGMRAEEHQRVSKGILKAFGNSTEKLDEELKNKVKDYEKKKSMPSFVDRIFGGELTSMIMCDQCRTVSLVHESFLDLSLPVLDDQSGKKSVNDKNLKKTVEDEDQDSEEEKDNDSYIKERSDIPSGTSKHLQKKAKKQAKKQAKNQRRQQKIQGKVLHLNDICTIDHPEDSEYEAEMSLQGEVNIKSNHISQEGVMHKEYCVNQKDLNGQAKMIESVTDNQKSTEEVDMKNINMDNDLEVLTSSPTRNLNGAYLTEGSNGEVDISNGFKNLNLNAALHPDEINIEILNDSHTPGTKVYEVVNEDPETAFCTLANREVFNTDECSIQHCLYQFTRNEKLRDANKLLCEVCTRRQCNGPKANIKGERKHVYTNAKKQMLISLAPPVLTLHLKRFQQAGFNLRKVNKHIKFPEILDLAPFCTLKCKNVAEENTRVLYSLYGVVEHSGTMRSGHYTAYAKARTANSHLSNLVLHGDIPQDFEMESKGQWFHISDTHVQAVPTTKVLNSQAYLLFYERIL
UniProt Q9Y5B8, whole entry: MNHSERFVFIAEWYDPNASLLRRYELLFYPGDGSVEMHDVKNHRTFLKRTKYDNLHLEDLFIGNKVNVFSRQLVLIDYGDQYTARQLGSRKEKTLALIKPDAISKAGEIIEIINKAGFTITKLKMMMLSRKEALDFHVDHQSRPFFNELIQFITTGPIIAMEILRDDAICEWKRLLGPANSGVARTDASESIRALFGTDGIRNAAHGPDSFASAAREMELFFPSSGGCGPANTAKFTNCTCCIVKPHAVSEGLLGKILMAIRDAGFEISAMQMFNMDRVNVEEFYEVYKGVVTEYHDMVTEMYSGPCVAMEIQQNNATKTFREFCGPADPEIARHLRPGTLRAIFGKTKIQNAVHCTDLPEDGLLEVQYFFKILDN
UniProt Q9Y490: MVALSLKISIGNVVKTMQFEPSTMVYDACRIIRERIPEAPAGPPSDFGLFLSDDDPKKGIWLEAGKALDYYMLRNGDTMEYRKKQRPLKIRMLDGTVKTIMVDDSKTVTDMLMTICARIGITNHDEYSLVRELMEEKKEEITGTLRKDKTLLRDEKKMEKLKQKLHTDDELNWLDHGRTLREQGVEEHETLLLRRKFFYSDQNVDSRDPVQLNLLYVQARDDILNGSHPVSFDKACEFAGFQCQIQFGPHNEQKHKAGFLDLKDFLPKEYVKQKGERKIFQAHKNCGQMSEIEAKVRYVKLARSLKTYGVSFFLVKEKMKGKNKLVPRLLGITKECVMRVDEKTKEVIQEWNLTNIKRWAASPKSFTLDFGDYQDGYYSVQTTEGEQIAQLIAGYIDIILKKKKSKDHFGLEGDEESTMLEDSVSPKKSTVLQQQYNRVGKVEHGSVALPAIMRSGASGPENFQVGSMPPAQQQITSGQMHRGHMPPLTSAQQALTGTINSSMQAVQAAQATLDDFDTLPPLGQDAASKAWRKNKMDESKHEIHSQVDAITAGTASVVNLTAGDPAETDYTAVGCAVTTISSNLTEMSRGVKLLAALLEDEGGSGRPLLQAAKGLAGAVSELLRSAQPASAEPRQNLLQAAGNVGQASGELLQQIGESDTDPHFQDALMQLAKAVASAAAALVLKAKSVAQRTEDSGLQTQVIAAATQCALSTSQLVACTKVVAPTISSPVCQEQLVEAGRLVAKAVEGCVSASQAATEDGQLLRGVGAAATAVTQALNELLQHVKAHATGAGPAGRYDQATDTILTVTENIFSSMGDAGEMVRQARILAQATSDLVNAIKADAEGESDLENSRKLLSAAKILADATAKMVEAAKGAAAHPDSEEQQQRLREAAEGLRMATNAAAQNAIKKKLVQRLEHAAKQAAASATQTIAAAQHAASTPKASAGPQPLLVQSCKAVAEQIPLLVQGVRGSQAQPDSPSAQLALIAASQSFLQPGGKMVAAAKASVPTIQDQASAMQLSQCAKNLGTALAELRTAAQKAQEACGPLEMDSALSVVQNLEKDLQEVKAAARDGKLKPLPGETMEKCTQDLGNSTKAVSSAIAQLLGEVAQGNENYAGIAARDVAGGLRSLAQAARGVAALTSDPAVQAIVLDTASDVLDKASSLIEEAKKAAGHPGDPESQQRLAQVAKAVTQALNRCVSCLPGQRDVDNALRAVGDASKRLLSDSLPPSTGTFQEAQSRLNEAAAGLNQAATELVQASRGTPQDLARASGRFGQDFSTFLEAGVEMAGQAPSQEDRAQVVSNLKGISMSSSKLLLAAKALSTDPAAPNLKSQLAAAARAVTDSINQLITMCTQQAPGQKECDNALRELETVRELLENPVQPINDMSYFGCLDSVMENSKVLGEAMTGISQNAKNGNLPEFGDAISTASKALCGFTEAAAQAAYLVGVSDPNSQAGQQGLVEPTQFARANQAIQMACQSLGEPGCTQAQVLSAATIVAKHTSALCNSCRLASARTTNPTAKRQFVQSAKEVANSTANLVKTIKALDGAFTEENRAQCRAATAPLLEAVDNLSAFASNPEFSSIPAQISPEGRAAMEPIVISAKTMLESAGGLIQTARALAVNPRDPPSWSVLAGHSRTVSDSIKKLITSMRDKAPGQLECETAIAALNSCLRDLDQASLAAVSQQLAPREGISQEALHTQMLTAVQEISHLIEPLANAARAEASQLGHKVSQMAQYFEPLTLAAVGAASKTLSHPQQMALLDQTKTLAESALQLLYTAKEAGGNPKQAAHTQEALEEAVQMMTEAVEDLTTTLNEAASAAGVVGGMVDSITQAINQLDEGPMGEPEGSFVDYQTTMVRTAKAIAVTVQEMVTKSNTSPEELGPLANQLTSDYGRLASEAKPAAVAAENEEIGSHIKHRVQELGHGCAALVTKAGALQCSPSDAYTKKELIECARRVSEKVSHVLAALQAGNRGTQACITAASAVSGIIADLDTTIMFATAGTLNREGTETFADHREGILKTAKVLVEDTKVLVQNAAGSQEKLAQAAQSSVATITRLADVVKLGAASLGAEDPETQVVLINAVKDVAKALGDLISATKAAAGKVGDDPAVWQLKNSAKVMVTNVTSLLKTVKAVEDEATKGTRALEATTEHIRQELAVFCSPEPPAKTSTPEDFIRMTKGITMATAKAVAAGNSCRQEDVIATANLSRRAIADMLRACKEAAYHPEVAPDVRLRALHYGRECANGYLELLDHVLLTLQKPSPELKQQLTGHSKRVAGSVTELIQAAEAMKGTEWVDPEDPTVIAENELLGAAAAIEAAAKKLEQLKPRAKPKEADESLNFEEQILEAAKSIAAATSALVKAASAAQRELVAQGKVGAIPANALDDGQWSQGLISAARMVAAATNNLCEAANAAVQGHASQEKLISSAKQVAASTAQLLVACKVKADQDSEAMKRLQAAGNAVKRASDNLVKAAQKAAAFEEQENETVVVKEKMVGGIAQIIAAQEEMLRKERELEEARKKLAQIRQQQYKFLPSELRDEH
UniProt Q9Y4R8, whole entry, looked up: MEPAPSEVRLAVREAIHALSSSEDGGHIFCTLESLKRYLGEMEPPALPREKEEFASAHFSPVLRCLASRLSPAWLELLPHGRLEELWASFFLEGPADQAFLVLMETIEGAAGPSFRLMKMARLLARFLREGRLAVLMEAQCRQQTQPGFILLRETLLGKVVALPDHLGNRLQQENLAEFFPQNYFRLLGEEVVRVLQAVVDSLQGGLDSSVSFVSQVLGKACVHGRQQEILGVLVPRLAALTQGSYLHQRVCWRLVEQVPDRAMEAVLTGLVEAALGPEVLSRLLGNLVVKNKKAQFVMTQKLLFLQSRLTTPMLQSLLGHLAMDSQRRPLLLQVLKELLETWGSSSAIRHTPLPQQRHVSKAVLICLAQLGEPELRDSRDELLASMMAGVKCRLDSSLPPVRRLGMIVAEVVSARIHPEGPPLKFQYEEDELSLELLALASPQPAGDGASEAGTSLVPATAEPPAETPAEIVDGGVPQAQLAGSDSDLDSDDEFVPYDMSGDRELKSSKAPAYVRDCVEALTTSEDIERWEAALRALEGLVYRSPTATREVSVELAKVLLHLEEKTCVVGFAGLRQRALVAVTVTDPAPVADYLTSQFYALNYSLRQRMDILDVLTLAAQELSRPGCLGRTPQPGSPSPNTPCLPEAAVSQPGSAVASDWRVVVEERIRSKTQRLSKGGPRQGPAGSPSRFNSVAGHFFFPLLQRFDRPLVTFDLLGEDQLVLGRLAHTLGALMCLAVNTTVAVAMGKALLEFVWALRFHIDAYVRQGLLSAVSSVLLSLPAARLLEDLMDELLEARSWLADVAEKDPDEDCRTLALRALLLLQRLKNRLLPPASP
UniProt Q9Y4W2: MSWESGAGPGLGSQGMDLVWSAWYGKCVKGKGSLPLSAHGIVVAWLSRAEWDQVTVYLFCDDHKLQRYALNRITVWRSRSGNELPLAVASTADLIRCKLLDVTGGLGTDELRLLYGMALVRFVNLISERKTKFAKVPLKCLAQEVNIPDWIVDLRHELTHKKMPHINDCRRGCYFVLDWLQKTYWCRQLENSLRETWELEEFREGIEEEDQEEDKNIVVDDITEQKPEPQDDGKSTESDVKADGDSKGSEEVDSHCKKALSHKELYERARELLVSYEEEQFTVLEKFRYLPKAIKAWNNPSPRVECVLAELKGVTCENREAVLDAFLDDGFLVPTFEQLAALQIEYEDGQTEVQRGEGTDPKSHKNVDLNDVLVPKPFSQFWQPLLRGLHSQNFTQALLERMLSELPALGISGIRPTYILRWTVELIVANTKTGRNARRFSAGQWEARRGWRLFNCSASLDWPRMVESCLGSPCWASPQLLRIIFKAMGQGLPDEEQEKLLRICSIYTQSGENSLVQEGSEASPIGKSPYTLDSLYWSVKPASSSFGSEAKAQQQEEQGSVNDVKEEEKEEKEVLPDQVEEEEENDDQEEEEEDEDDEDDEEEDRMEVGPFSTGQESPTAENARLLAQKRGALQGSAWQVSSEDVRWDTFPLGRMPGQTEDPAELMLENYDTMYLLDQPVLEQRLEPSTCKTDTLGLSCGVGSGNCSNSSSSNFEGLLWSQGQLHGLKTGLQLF
UniProt Q9Y5M8: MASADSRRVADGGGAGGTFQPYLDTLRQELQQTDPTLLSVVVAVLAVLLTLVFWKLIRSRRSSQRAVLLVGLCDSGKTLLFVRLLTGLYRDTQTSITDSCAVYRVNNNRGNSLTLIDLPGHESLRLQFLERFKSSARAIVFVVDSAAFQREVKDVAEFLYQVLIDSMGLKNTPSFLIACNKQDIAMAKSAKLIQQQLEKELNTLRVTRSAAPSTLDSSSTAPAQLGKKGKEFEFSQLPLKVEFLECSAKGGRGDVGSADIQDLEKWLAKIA
UniProt Q9Y570: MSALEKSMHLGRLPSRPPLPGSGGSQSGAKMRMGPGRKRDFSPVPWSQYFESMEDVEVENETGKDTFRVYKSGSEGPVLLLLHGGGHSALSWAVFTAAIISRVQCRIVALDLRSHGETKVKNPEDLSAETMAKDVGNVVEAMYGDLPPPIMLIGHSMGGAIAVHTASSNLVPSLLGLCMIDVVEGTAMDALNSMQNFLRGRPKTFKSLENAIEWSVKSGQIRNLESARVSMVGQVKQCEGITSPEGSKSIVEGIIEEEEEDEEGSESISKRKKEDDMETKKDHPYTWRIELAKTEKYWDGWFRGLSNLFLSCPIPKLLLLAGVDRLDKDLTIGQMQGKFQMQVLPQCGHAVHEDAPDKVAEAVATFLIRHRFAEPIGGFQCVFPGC
UniProt Q9Y696: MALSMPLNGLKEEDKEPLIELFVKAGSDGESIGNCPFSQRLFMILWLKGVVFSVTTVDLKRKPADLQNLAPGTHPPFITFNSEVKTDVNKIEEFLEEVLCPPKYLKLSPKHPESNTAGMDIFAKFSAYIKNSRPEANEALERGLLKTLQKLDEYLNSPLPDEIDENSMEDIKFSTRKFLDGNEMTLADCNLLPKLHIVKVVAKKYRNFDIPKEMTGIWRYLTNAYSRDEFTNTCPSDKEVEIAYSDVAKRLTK
UniProt Q9Y508: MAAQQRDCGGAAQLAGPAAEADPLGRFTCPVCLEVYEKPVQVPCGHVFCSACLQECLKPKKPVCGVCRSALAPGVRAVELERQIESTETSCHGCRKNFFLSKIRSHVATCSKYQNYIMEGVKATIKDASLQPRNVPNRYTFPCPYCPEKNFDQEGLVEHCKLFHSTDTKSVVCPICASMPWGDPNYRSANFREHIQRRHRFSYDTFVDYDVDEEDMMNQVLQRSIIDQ

Compound: COC(=O)C#Cc1ccccc1 [methyl 3-phenylpropiolate]
Experiment: log2 ratio of iodoacetamide-alkyne labeling of the cysteine site, DMSO over compound (competition); higher = stronger covalent engagement of the cysteine by the compound, active = 1 or more
Details: 500 µM; treatment time 1 h; system: HEK293T cell lysate
In short: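 HEK293T lysate (2 mg/mL) was treated with DMSO or electrophile (500 µM, 1 h, ambient temperature), then iodoacetamide alkyne (1 h), clicked to sCIP-TMT reagents, pooled, trypsin-digested overnight at 37 °C, streptavidin-enriched and acid-eluted. Peptides were run on Orbitrap Eclipse LC-MS/MS with FAIMS and quantified in FragPipe. The log2 competition ratio per cysteine is mean control-channel over mean compound-channel reporter intensity. Duplicate channels and three replicates were used, and cysteines quantified in only one replicate were excluded.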

Target | log2 ratio of iodoacetamide-alkyne labeling
NUBP2 C72 (UniProt Q9Y5Y2) | inactive: 0.921
SAMM50 C65 (UniProt Q9Y512) | inactive: -0.163
USP16 C205 (UniProt Q9Y5T5) | inactive: -0.0573
NME7 C228 (UniProt Q9Y5B8) | inactive: -0.145
TLN1 C1363 (UniProt Q9Y490) | inactive: 0.21
TLN1 C286 (UniProt Q9Y490) | inactive: 0.447
TELO2 C30 (UniProt Q9Y4R8) | inactive: 0.419
LAS1L C140 (UniProt Q9Y4W2) | inactive: 0.848
SRPRB C246 (UniProt Q9Y5M8) | inactive: 0.303
ARFGEF2 C1206 (UniProt Q9Y6D5) | inactive: 0.178
PPME1 C347 (UniProt Q9Y570) | inactive: 0.177
ARFGEF2 C1450 (UniProt Q9Y6D5) | inactive: 0.55
LAS1L C469 (UniProt Q9Y4W2) | inactive: -0.00835
CLIC4 C35 (UniProt Q9Y696) | inactive: 0.172
UniProt Q9Y4B6_C784 | inactive: 0.615
UniProt Q9Y678_C129 | inactive: 0.51

Target | log2 ratio of iodoacetamide-alkyne labeling
TACC3 C662 (UniProt Q9Y6A5) | inactive: 0.32
UniProt Q9Y6E0_C375 | inactive: 0.0828
ZHX2 C738 (UniProt Q9Y6X8) | inactive: 0.426
YTHDF2 C482 (UniProt Q9Y5A9) | inactive: 0.44
ALG5 C194 (UniProt Q9Y673) | inactive: 0.233
AFG3L2 C313 (UniProt Q9Y4W6) | inactive: 0.313
TLN1 C1434 (UniProt Q9Y490) | inactive: 0.146
USP16 C618 (UniProt Q9Y5T5) | inactive: 0.249
PSAT1 C80 (UniProt Q9Y617) | inactive: 0.183
UTP18 C90 (UniProt Q9Y5J1) | inactive: 0.294
TLN1 C1353 (UniProt Q9Y490) | inactive: -0.00168
TCAF1 C576 (UniProt Q9Y4C2) | inactive: -0.325
TELO2 C518 (UniProt Q9Y4R8) | inactive: -0.218
SNX5 C397 (UniProt Q9Y5X3) | inactive: 0.00495
RNF114 C8 (UniProt Q9Y508) | inactive: 0.412

Single entries from the list.
For log2 ratio of iodoacetamide-alkyne labeling, TLN1 C1353 (UniProt Q9Y490) shows inactive: -0.00168
For log2 ratio of iodoacetamide-alkyne labeling, TELO2 C518 (UniProt Q9Y4R8) shows inactive: -0.218
